Measurements taken from patent US7582786B2, “Synthetic catalytic free radical scavengers useful as antioxidants for prevention and therapy of disease” (Eukarion Inc., priority 1996, dated 2009).
Some entries share one result that the patent states for a list of compounds. At least one structure is not confirmed: it was looked up by name or label, or the drawing left a doubt.

System: Human dermal fibroblasts (HF cells)
Assay: Cell protection assay, tert-butylhydroperoxide (t-BHP) toxicity, XTT
Type: cell-based
Settings: t-BHP 0.5 mM
Description: Human dermal fibroblasts (HF cells) were obtained from the American type tissue Culture Collection at passage 1 and cultured and propagated in a medium (HF medium) consisting of Dulbecco's Modified Eagle's Medium with 4.5 g/l D-glucose, 10% calf serum 4 mM glutamine, 50 units/ml penicillin, and 50 μg/ml streptomycin in a 37° C. humidified incubator equilibrated with 5% CO2. Cells were used at passages 5 or 6 for experiments. For cell protection assays, HF cells were seeded at a density of about 15,000 cells per cm2 onto 96-well culture plates and allowed to grow to confluence. To assess protection tert-butylhydroperoxide (t-BHP) toxicity, confluent cell layers were first treated with the indicated concentrations of test compounds dissolved in HF medium for 18 hr. The medium was then replaced with fresh medium containing test compounds and 0.5 mM tert-butylhydroperoxide (t-BHP) and cells were incubated for another 18 hr. The medium was then removed and replaced with fresh HF medium (100 μl per well) without test compounds or t-BHP. […] After 2 hr., the absorbance at 490 nm was measured in a BioRad (Richmond, Calif.) Model 3550 plate-reader, using a reference wavelength of 655 nm. […] Absorbance measurements for blank wells, containing HF medium and XTT reagent but no cells, were also determined. […] Fresh HF medium was then added and cell viability assessed using the XTT reagent as described above. […]

CC(=O)[O][Mn]1[O]c2ccccc2C=NCCN=Cc2ccccc2[O]1 [Compound C31]
concentration at which protection was observed: ≥ 5 µM
